Laboratory results published in article PMC10163288.
The other results are listed elsewhere or left out.

B1: il10ra_site1_sap_19_mot_HHH_b2_08004_000000101_0001_1_17_H_._HHH_b1_05193_0001_0000300016_0000002_0_0001 (protein)
chain: SSSSDEAEKVKEVLEEALKLQREGDKEKARELLEELLKELEEKNNLVLLFSVEHLLRVIENSSSS
B2: il10ra_site1_sap_26_mot_HHH_b2_02386_000000054_0001_1_20_H_._7397bc064fdf6bae2cd3d62d454bf56a_0001_1_0001_0000200008_0000001_0_0001_af2pred_0001 (protein)
chain: SSSSSEEEVVRLTLRFAEWLIEAGDPEAARRFLEAAERLVRELGDEELERKIEELLEELKSSSSS
B3: il10ra_site1_normal_mot_HHH_b1_05357_000000034_0001_23_39_H_._HHH_b1_02372_af2_0001_0000500029_0000001_0_af2pred_0001 (protein)
chain: SSSSDVRHRAAYVALEVYALAYKRNDPEVREEVLKLLREILEKGDPRLLEELEELLEELRSSSSS
B4: il10ra_site1_normal_mot_8756ee2cf497b5429c717dfc0c0bcfd6_0001_000000186_0001_1_13_H_._HHH_b1_07345_af2_0001_0000100004_0000001_0 (protein)
chain: SSSSDEELEELFRLSEEIAKLLHEGDREEAEELVKEAEELAERLGNDVALHQLEYLQRHINSSSS
B5: il10ra_site1_normal_mot_HHH_b1_04771_000000013_0001_40_56_H_._HHH_b1_08243_0001_0000100007_0000001_0 (protein)
chain: SSSSDEEVEEVAELSLEAFRLALRGNPEEARKLLEEAEELAEEANDPRLLEVIRHLLKALSSSSS
B6: il10ra_site1_sap_26_mot_HHH_b2_02736_000000092_0001_22_38_H_._HHH_b2_04967_af2_0002_0000200019_0000002_0_0001_af2pred_0001 (protein)
chain: SSSEEEVEELVKEVERVAEERGDPKARLSARFYAVLARVAAKRDNEDALKALRRALQAFRENSSS
B7: il10ra_site1_sap_15_mot_HHH_b1_04514_000000156_0001_1_18_H_._HHH_b1_00644_0001_0000200013_0000002_0_0001 (protein)
chain: SSSSSSDEEEVEKLLEEAEHISDEEERMKVLMEALRIALRLGNPELLHLVWRVIKELISSSSSSS
B8: il10ra_site1_sap_17_mot_HHH_b2_03220_af2_000000223_0001_23_40_H_._HHH_b2_01415_af2_0001_0000200009_0000002_0_0001 (protein)
chain: SSSSDEEAEEVFRLMKEAAHIDDEEEVREVLEEALRLAEEAGNQNMIVNLRYWLEAVERGSSSSS
B9: il10ra_site1_normal_mot_HHH_b2_07938_000000207_0001_42_56_H_._HHH_b1_00305_af2_0001_0000200009_0000001_0 (protein)
chain: SSSSSSELEEHIKELVELFGLSEEQEHYLEVAAEALKEKGVSEEEIRHMLEIQAKLLALGSSSSS
B10: il10ra_site1_normal_mot_HHH_b1_02881_000000046_0001_1_20_H_._HHH_b2_03598_0001_0000100004_0000001_0 (protein)
chain: SSSSSDEEYEERVEELLEEAQKSDDPDERYRLLREAIEVAAEGNDPELQRLVAEASAEIFSSSSS
B11: il10ra_site1_normal_mot_05ca327611f5605f0dd8494b449afcbf_0001_1_000000248_0001_35_51_H_._HHH_b2_01978_0001_0000100002_0000001_0 (protein)
chain: SSSSDVERVEEAQELLRQAAEIEDPEEARELLERAKELAEEAGNETLKISIEYLERQLERSSSSS
B12: il10ra_site1_sap_20_mot_HHH_b1_06789_af2_000000041_0001_1_20_H_._HHH_b2_00653_af2_0001_0000100003_0000001_1_0001_af2pred_0001 (protein)
chain: SSSSSRTQEVLKLIREAMELLQRGNPEEAEEVAREAVELAQEAGDPLAAHIAERLLEHIGSSSSS
B13: il10ra_site1_normal_mot_HHH_b2_01649_af2_000000191_0001_40_56_H_._HHH_b1_04317_0001_0000100005_0000002_0_af2pred_dldesign_0_af2pred (protein)
chain: SSSSSEAEITFAAGRHAIRAALEAGDLEAAQRALDYWSSVLEELGAPELVEALRAEYERLLSSSS
B14: il10ra_site1_sap_15_mot_HHH_b1_04940_000000219_0001_1_18_H_._HHH_b2_05338_0001_0000100008_0000001_0_0001 (protein)
chain: SSSSDAEWLVRQAQKALELARRNGDEEALRWAAEALLNLAKHLNDEELEEEARELLEELNSSSSS
B15: il10ra_site1_normal_mot_HHH_b2_04680_000000215_0001_1_16_H_._HHH_b1_04462_af2_0001_0000500043_0000001_0 (protein)
chain: SSSSDKETREAYEIAREAFHVEDEEEREELLEEALELAREGGNFALVFAIENLLRALREGSSSSS
B16: il10ra_site1_sap_20_mot_HHH_b1_05083_af2_000000148_0001_42_57_H_._HHH_b2_02934_0001_0000100002_0000002_0_0001_af2pred_0001 (protein)
chain: SSSSSEEVEELLEEAERLAEEGNPQEALEALFKASRIALELGDPELARKVDEVARRLLELLSSSS
B17: il10ra_site1_sap_16_mot_HHH_b2_07579_000000275_0001_1_19_H_._HHH_b1_02229_0001_0000300011_0000001_0_0001_af2pred_0001 (protein)
chain: SSSSDEEELRERIEELLEEARRIPDKREASFLFTRAFALANRNNDEELKREVEELAQRTSSSSSS
B18: il10ra_site1_normal_mot_HHH_b1_05357_000000034_0001_23_39_H_._HHH_b1_01900_0002_0000100005_0000001_0_af2pred_0001 (protein)
chain: SSSSSEDKEEVRRLLEEAEEYAEEGNPERVAYLLVRAFALANRNNNEELKRLVERVAKELISSSS
B19: il10ra_site1_normal_mot_HHH_b1_05189_000000097_0001_43_57_H_._HHH_b2_05352_0001_0000300024_0000001_0_af2pred_0001 (protein)
chain: SSSSDDEAVKRVAELLREALHIPDEEERRKILEEAQEVAEEGNSPVLEWAVESIRRKLERSSSSS
B20: il10ra_site1_sap_22_mot_ems_3hM_1776_000000199_0001_44_63_H_._HHH_b1_04086_af2_0001_0000100003_0000001_0_0001 (protein)
chain: SSSSDVAEEVKRAIEEALRLLRNGDPEEAERLLEELEEKLEERGNQLAIMAVRYALEIVQESSSS
B21: il10ra_site1_normal_mot_HHH_b2_03568_000000058_0001_1_19_H_._HHH_b1_05354_0001_0000100001_0000001_1 (protein)
chain: SSSSSDESYELARKAIEELVELFEEGDPEEVRRLAEEVIEELRELGDEVAALSIEHLLRALSSSS
B22: il10ra_site1_sap_18_mot_HHH_b2_02736_000000092_0001_22_38_H_._HHH_b2_04029_af2_0001_0000100005_0000002_0_0001 (protein)
chain: SSSSFHEVWRLSREIAEAIREGDEERVRELLEQLEELLEETGDPMVEYLLRVLRILFKHEFSSSS
B23: il10ra_site1_sap_19_mot_HHH_b2_06497_000000202_0001_1_20_H_._HHH_b1_04383_0001_0000200013_0000002_0_0001 (protein)
chain: SSSSDELEEATEEAEELAKELGDEELERMLRLLLETYKKHGDRIAEWLLRQAIRAVRNLHRSSSS
B24: il10ra_site1_sap_22_mot_HHH_b2_04274_000000146_0001_1_19_H_._HHH_b2_01039_af2_0001_0000100006_0000001_0_0001 (protein)
chain: SSSSSEVEELLEEAKELIERGNPEEALHVLFRALRLALHEGDAELLREIWELLKEVAERNSSSSS

Each binder was assayed against il10ra, Q13651 (assay: yeast display titration).

Apparent Kd, inactive:
B1 no binding seen
B2 no binding seen
B3 no binding seen
B4 no binding seen
B5 > 0.931 µM
B6 no binding seen
B7 no binding seen
B8 no binding seen
B9 no binding seen
B10 no binding seen
B11 no binding seen
B12 no binding seen
B13 no binding seen
B14 no binding seen
B15 no binding seen
B16 no binding seen
B17 no binding seen
B18 no binding seen
B19 no binding seen
B20 no binding seen
B21 no binding seen
B22 no binding seen
B23 no binding seen
B24 no binding seen

2 entries drawn at random from those above, as already listed:
Apparent Kd, inactive:
B8 no binding seen
B23 no binding seen
